Measurements reported in the supplement of paper PMC12889115.
The list shows a part of the results. These are raw signals, not scaled to a control.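 In the initial screen, polymyxin B was used at a concentration that permeabilizes Salmonella's outer membrane but not its inner membrane. Maximum growth was set by DMSO wells with or without polymyxin B. Since plates varied, data were ranked per plate, and compounds giving the lowest OD600 advanced as hits.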

Tested on: Salmonella enterica serovar Typhimurium SL1344
Assay: bacterial growth OD600 after 18 h with compound and polymyxin B; higher = more bacterial growth (less inhibition)
Details: 50 µM, Mueller-Hinton broth

| Structure (SMILES) | bacterial growth OD600 (polymyxin B 0.75 µg/mL) | bacterial growth OD600 (polymyxin B 1 µg/mL) |
| --- | --- | --- |
| CCCc1ncc(CN2CCC(C3CCN(c4ncccn4)CC3)C2)cn1 (stereo unspecified) | 0.792 | – |
| COc1ccc(F)c(CN2CCCC3(CCN(c4cc(OC)ncn4)C3)C2=O)c1 (stereo unspecified) | – | 0.885 |
| COc1ccc(C(CC(=O)N(C)Cc2cn(C)nc2C)c2ccccc2)cc1 (stereo unspecified) | – | 0.787 |
| CCOc1cc(CN2CCN(Cc3ccc(OC)c(C)c3C)C(CCO)C2)ccc1O (stereo unspecified) | – | 0.951 |
| CN(Cc1ccn[nH]1)C(=O)c1ccc2oc(-c3cccc(F)c3)nc2c1 | 0.037 | – |
| COc1ccc(CCC2CCCN(C(=O)CCSC)C2)cc1 (stereo unspecified) | 0.519 | – |
| COCCCNc1ncnc2sc(C(=O)N(C)CC(C)C)c(C)c12 | 0.838 | – |
| CCC(NC(=O)CCc1nnc(Cc2cc(OC)ccc2OC)o1)c1ccc(F)cc1 (stereo unspecified) | – | 0.705 |
| O=C(CC1CC1)N1CCCC(CCc2ccccc2)C1 (stereo unspecified) | 0.64 | – |
| Cc1c(C(C)NC2CCN(Cc3ccccn3)CC2)cnn1-c1ccc(F)cc1F (stereo unspecified) | – | 0.928 |
| COc1cccc(OC)c1-c1cnnc(NCc2cccc(C(F)(F)F)c2)n1 | – | 0.009 |
| COc1cc(=O)n2c(c1C(=O)NCc1ccc3c(c1)OCO3)CCN(C(=O)c1ccccc1C)CC2 | 0.835 | – |
| Fc1cccc(-c2noc3c2CN(Cc2cccn2-c2ccccn2)CC3)c1 | 0.553 | – |
| CC(C)(C)c1ccc(-n2ncc3c2CCCC3NC(=O)CCn2cnnn2)cc1 (stereo unspecified) | – | 0.816 |
| Cc1nc(C)c(C(=O)N2CCC3(CC2)CC3C(=O)NCC2(c3ccccc3)CCOCC2)s1 (stereo unspecified) | 0.91 | – |
| CCOC(=O)C1(Cc2ccc(OC)cc2)CCN(C(=O)C(C)Oc2ccccc2)CC1 (stereo unspecified) | 0.192 | – |
| Fc1ccc(Cc2noc(-c3ccc(N4CCCCO4)nc3)n2)cc1 | 0.58 | – |
| COc1cccc(C2c3[nH]c4ccccc4c3CCN2Cc2ccco2)c1OC (stereo unspecified) | – | 0.008 |
| CN(CC(O)c1ccccc1)C(=O)c1cc(NS(C)(=O)=O)cc2ncn(CCc3ccccc3)c12 (stereo unspecified) | 0.791 | – |
| Clc1ccc2nc(CN3CCCC(N4CCOCC4)C3)ccc2c1 (stereo unspecified) | – | 1.11 |
| COc1ccc(CCN2CCCC(CN(C)Cc3ccc(OC)cc3F)C2)cc1 (stereo unspecified) | 0.684 | – |

Two entries drawn at random from those above:

| Structure (SMILES) | bacterial growth OD600 (polymyxin B 0.75 µg/mL) | bacterial growth OD600 (polymyxin B 1 µg/mL) |
| --- | --- | --- |
| COc1cc(=O)n2c(c1C(=O)NCc1ccc3c(c1)OCO3)CCN(C(=O)c1ccccc1C)CC2 | 0.835 | – |
| O=C(CC1CC1)N1CCCC(CCc2ccccc2)C1 (stereo unspecified) | 0.64 | – |
